Experimental data: PubChem BioAssay AID186 (DTP/NCI, 2004)
The mice bore no tumour; each value counts animals alive of those treated. Counts of survivors are from the toxicity check (mostly the fifth day) where no day follows; animals may have died later. Schedule codes are those of the source, taken here to give the interval after Q, in days (D) or hours (H), and the number of doses after X. Some entries were tested several times; the values are given in rising order.

Test system: B6D2F1 mice, nontumored toxicity test, survival
Experiment: NCI In Vivo Anticancer Drug Screen. Data for tumor model Nontumored Animals (Toxicity Test) in B6D2F1 (BDF1) mice

In the case of `COC(=O)[C@@]12OC[C@]34[C@H]([C@@H](O)[C@@H]1O)[C@@]1(C)CC(=O)C(O)=C(C)[C@@H]1C[C@H]3OC(=O)[C@H](OC(=O)/C=C(\C)C(C)C)[C@@H]24`, the survivor count (dose: 0.03 mg/kg/injection, schedule: Q01DX009 (ip), vehicle: saline + alcohol) is reported as 8 of 8, the survivor count (dose: 0.03 mg/kg/injection, schedule: Q01DX009 (ip), vehicle: saline with Tween-80) is reported as 8 of 8 and the survivor count (dose: 0.03 mg/kg/injection, schedule: Q03HX024 (ip), vehicle: saline + alcohol) is reported as 8 of 8. For the same compound, the survivor count (dose: 0.05 mg/kg/injection, schedule: Q01DX005 (iv), vehicle: saline + alcohol) was 8 of 8, the survivor count (dose: 0.05 mg/kg/injection, schedule: Q01DX009 (ip), vehicle: saline + alcohol) was 7 of 7 and the survivor count (dose: 0.06 mg/kg/injection, schedule: Q01DX009 (ip), vehicle: saline + alcohol) was 8 of 8. The survivor count (dose: 0.06 mg/kg/injection, schedule: Q01DX009 (ip), vehicle: saline with Tween-80) was 8 of 8, the survivor count (dose: 0.06 mg/kg/injection, schedule: Q01DX009 (sc), vehicle: saline + alcohol) was 8 of 8 and the survivor count (dose: 0.06 mg/kg/injection, schedule: Q03HX016 (ip), vehicle: saline + alcohol) was 8 of 8. The survivor count (dose: 0.06 mg/kg/injection, schedule: Q03HX024 (ip), vehicle: saline + alcohol) was 8 of 8, the survivor count (dose: 0.1 mg/kg/injection, schedule: Q01DX005 (iv), vehicle: saline + alcohol) was 8 of 8 and the survivor count (dose: 0.1 mg/kg/injection, schedule: Q01DX009 (ip), vehicle: saline + alcohol) was 8 of 8. The survivor count (dose: 0.13 mg/kg/injection, schedule: Q01DX009 (ip), vehicle: saline + alcohol) was 8 of 8, the survivor count (dose: 0.13 mg/kg/injection, schedule: Q01DX009 (ip), vehicle: saline with Tween-80) was 8 of 8 and the survivor count (dose: 0.13 mg/kg/injection, schedule: Q01DX009 (sc), vehicle: saline + alcohol) was 8 of 8. For the same compound, the survivor count (dose: 0.13 mg/kg/injection, schedule: Q03HX008 (ip), vehicle: saline + alcohol) was 8 of 8, the survivor count (dose: 0.13 mg/kg/injection, schedule: Q03HX016 (ip), vehicle: saline + alcohol) was 8 of 8 and the survivor count (dose: 0.13 mg/kg/injection, schedule: Q03HX024 (ip), vehicle: saline + alcohol) was 8 of 8. For the same compound, the survivor count (dose: 0.2 mg/kg/injection, schedule: Q01DX005 (iv), vehicle: saline + alcohol) was 8 of 8, the survivor count (dose: 0.2 mg/kg/injection, schedule: Q01DX009 (ip), vehicle: saline + alcohol) was 8 of 8 and the survivor count (dose: 0.25 mg/kg/injection, schedule: Q01DX009 (ip), vehicle: saline + alcohol) was 8 of 8. The survivor count (dose: 0.25 mg/kg/injection, schedule: Q01DX009 (ip), vehicle: saline with Tween-80) was 8 of 8, the survivor count (dose: 0.25 mg/kg/injection, schedule: Q01DX009 (sc), vehicle: saline + alcohol) was 8 of 8 and the survivor count (dose: 0.25 mg/kg/injection, schedule: Q03HX008 (ip), vehicle: saline + alcohol) was 7 of 8. The survivor count (dose: 0.25 mg/kg/injection, schedule: Q03HX016 (ip), vehicle: saline + alcohol) was 8 of 8, the survivor count (dose: 0.25 mg/kg/injection, schedule: Q03HX024 (ip), vehicle: saline + alcohol) was 7 of 8 and the survivor count (dose: 0.25 mg/kg/injection, schedule: Q04DX003 (ip), vehicle: saline + alcohol) was 8 of 8. For the same compound, the survivor count (dose: 0.4 mg/kg/injection, schedule: Q01DX005 (iv), vehicle: saline + alcohol) was 8 of 8, the survivor count (dose: 0.4 mg/kg/injection, schedule: Q01DX009 (ip), vehicle: saline + alcohol) was 8 of 8 and the survivor count (dose: 0.44 mg/kg/injection, schedule: Q01DX009 (ip), vehicle: saline with Tween-80) was 10 of 10. For the same compound, the survivor count (dose: 0.5 mg/kg/injection, schedule: Q01DX009 (ip), vehicle: saline + alcohol) was 8 of 8, the survivor count (dose: 0.5 mg/kg/injection, schedule: Q01DX009 (ip), vehicle: saline with Tween-80) was 8 of 8 and the survivor count (dose: 0.5 mg/kg/injection, schedule: Q01DX009 (oral), vehicle: saline + alcohol) was 7 of 8 and 8 of 8. The survivor count (dose: 0.5 mg/kg/injection, schedule: Q01DX009 (sc), vehicle: saline + alcohol) was 8 of 8, the survivor count (dose: 0.5 mg/kg/injection, schedule: Q03HX008 (ip), vehicle: saline + alcohol) was 0 of 8 and the survivor count (dose: 0.5 mg/kg/injection, schedule: Q03HX016 (ip), vehicle: saline + alcohol) was 0 of 8. For the same compound, the survivor count (dose: 0.5 mg/kg/injection, schedule: Q03HX024 (ip), vehicle: saline + alcohol) was 0 of 8, the survivor count (dose: 0.5 mg/kg/injection, schedule: Q04DX003 (ip), vehicle: saline + alcohol) was 8 of 8 and the survivor count (dose: 0.5 mg/kg/injection, schedule: Q08DX002 (ip), vehicle: saline + alcohol) was 8 of 8. The survivor count (dose: 0.66 mg/kg/injection, schedule: Q01DX009 (ip), vehicle: saline with Tween-80) was 10 of 10, the survivor count (dose: 0.67 mg/kg/injection, schedule: Q01DX009 (ip), vehicle: saline with Tween-80) was 10 of 10 and the survivor count (dose: 0.8 mg/kg/injection, schedule: Q01DX005 (ip), vehicle: saline + alcohol) was 8 of 8. The survivor count (dose: 0.8 mg/kg/injection, schedule: Q01DX005 (iv), vehicle: saline + alcohol) was 8 of 8, the survivor count (dose: 0.8 mg/kg/injection, schedule: Q01DX009 (ip), vehicle: saline + alcohol) was 8 of 8 and the survivor count (dose: 1.0 mg/kg/injection, schedule: Q01DX001 (ip), vehicle: saline + alcohol) was 8 of 8. For the same compound, the survivor count (dose: 1.0 mg/kg/injection, schedule: Q01DX001 (oral), vehicle: saline + alcohol) was 8 of 8, the survivor count (dose: 1.0 mg/kg/injection, schedule: Q01DX001 (sc), vehicle: saline + alcohol) was 8 of 8 and the survivor count (dose: 1.0 mg/kg/injection, schedule: Q01DX009 (ip), vehicle: saline + alcohol) was 8 of 8. For the same compound, the survivor count (dose: 1.0 mg/kg/injection, schedule: Q01DX009 (ip), vehicle: saline with Tween-80) was 10 of 10 and 8 of 8, the survivor count (dose: 1.0 mg/kg/injection, schedule: Q01DX009 (oral), vehicle: saline + alcohol) was 7 of 8 and 8 of 8 and the survivor count (dose: 1.0 mg/kg/injection, schedule: Q01DX009 (sc), vehicle: saline + alcohol) was 8 of 8. For the same compound, the survivor count (dose: 1.0 mg/kg/injection, schedule: Q03HX008 (ip), vehicle: saline + alcohol) was 0 of 8, the survivor count (dose: 1.0 mg/kg/injection, schedule: Q03HX016 (ip), vehicle: saline + alcohol) was 0 of 8 and the survivor count (dose: 1.0 mg/kg/injection, schedule: Q04DX003 (ip), vehicle: saline + alcohol) was 8 of 8. For the same compound, the survivor count (dose: 1.0 mg/kg/injection, schedule: Q08DX002 (ip), vehicle: saline + alcohol) was 8 of 8, the survivor count (dose: 1.5 mg/kg/injection, schedule: Q01DX009 (ip), vehicle: saline with Tween-80) was 9 of 10 and 10 of 10 and the survivor count (dose: 1.6 mg/kg/injection, schedule: Q01DX005 (ip), vehicle: saline + alcohol) was 8 of 8. The survivor count (dose: 1.6 mg/kg/injection, schedule: Q01DX005 (iv), vehicle: saline + alcohol) was 8 of 8, the survivor count (dose: 1.6 mg/kg/injection, schedule: Q01DX009 (ip), vehicle: saline + alcohol) was 8 of 8 and the survivor count (dose: 2.0 mg/kg/injection, schedule: Q01DX001 (ip), vehicle: saline + alcohol) was 8 of 8. The survivor count (dose: 2.0 mg/kg/injection, schedule: Q01DX001 (oral), vehicle: saline + alcohol) was 8 of 8, the survivor count (dose: 2.0 mg/kg/injection, schedule: Q01DX001 (sc), vehicle: saline + alcohol) was 8 of 8 and the survivor count (dose: 2.0 mg/kg/injection, schedule: Q01DX009 (ip), vehicle: saline + alcohol) was 5 of 8, 7 of 8, 8 of 8. The survivor count (dose: 2.0 mg/kg/injection, schedule: Q01DX009 (ip), vehicle: saline with Tween-80) was 7 of 8, the survivor count (dose: 2.0 mg/kg/injection, schedule: Q01DX009 (oral), vehicle: saline + alcohol) was 6 of 7 and 8 of 8 and the survivor count (dose: 2.0 mg/kg/injection, schedule: Q01DX009 (sc), vehicle: saline + alcohol) was 8 of 8. The survivor count (dose: 2.0 mg/kg/injection, schedule: Q03HX008 (ip), vehicle: saline + alcohol) was 0 of 8, the survivor count (dose: 2.0 mg/kg/injection, schedule: Q03HX016 (ip), vehicle: saline + alcohol) was 0 of 8 and the survivor count (dose: 2.0 mg/kg/injection, schedule: Q04DX003 (ip), vehicle: saline + alcohol) was 8 of 8. For the same compound, the survivor count (dose: 2.0 mg/kg/injection, schedule: Q08DX002 (ip), vehicle: saline + alcohol) was 8 of 8, the survivor count (dose: 2.25 mg/kg/injection, schedule: Q01DX009 (ip), vehicle: saline with Tween-80) was 8 of 10 and 10 of 10 and the survivor count (dose: 3.2 mg/kg/injection, schedule: Q01DX005 (ip), vehicle: saline + alcohol) was 7 of 8. The survivor count (dose: 3.2 mg/kg/injection, schedule: Q01DX005 (iv), vehicle: saline + alcohol) was 8 of 8, the survivor count (dose: 4.0 mg/kg/injection, schedule: Q01DX001 (ip), vehicle: saline + alcohol) was 5 of 8 and the survivor count (dose: 4.0 mg/kg/injection, schedule: Q01DX001 (oral), vehicle: saline + alcohol) was 8 of 8. The survivor count (dose: 4.0 mg/kg/injection, schedule: Q01DX001 (sc), vehicle: saline + alcohol) was 6 of 8, the survivor count (dose: 4.0 mg/kg/injection, schedule: Q01DX009 (ip), vehicle: saline + alcohol) was 3 of 8 and the survivor count (dose: 4.0 mg/kg/injection, schedule: Q01DX009 (ip), vehicle: saline with Tween-80) was 5 of 8. The survivor count (dose: 4.0 mg/kg/injection, schedule: Q01DX009 (oral), vehicle: saline + alcohol) was 7 of 8 and 8 of 8, the survivor count (dose: 4.0 mg/kg/injection, schedule: Q04DX003 (ip), vehicle: saline + alcohol) was 7 of 8 and the survivor count (dose: 4.0 mg/kg/injection, schedule: Q08DX002 (ip), vehicle: saline + alcohol) was 6 of 8. The survivor count (dose: 8.0 mg/kg/injection, schedule: Q01DX001 (ip), vehicle: saline + alcohol) was 0 of 8, the survivor count (dose: 8.0 mg/kg/injection, schedule: Q01DX001 (oral), vehicle: saline + alcohol) was 6 of 8 and 8 of 8 and the survivor count (dose: 8.0 mg/kg/injection, schedule: Q01DX001 (sc), vehicle: saline + alcohol) was 5 of 8. For the same compound, the survivor count (dose: 8.0 mg/kg/injection, schedule: Q01DX009 (oral), vehicle: saline + alcohol) was 0 of 8, the survivor count (dose: 8.0 mg/kg/injection, schedule: Q08DX002 (ip), vehicle: saline + alcohol) was 1 of 8 and the survivor count (dose: 16.0 mg/kg/injection, schedule: Q01DX001 (ip), vehicle: saline + alcohol) was 0 of 8. For the same compound, the survivor count (dose: 16.0 mg/kg/injection, schedule: Q01DX001 (oral), vehicle: saline + alcohol) was 3 of 8 and 7 of 8, the survivor count (dose: 16.0 mg/kg/injection, schedule: Q01DX001 (sc), vehicle: saline + alcohol) was 1 of 8 and the survivor count (dose: 16.0 mg/kg/injection, schedule: Q08DX002 (ip), vehicle: saline + alcohol) was 0 of 8.

For `CCCC(=O)Nc1ncnc2c1ncn2C1OC2COP(=O)(O)OC2C1OC(=O)CCC` (stereo not given), the survivor count (dose: 16.0 mg/kg/injection, schedule: Q06HX024 (ip), vehicle: saline) was 8 of 8, the survivor count (dose: 32.0 mg/kg/injection, schedule: Q06HX024 (ip), vehicle: saline) was 8 of 8 and the survivor count (dose: 64.0 mg/kg/injection, schedule: Q06HX024 (ip), vehicle: saline) was 8 of 8. The survivor count (dose: 128.0 mg/kg/injection, schedule: Q06HX024 (ip), vehicle: saline) was 8 of 8 and the survivor count (dose: 256.0 mg/kg/injection, schedule: Q06HX024 (ip), vehicle: saline) was 7 of 8.
